# This list was built around the results that the source calls inconclusive (neither active nor inactive); the mix of calls is not that of the screen. Potencies of inconclusive entries are doubtful fits and often do not repeat. The source made the active and inactive calls. Calls follow the shape of the dose curve; as a rule, active = well fitted activation curve with a large enough effect; inconclusive = small, poorly fitted or top-dose-only effect; inactive = no such curve, though single readings can be large or run the other way.
# Experiment: qHTS assay for re-activators of p53 using a Luc reporter: Hit Validation with no p53 Expressed; as to activity change, positive = activation: 0% is about no effect
# Conditions: p53-null cells, luciferase reporter counter-screen; series mostly up to 46.1 µM; activity change, positive = activation: at the top concentration
# Description: The p53 tumor suppressor plays a key role in suppression of tumorigenesis and in human carcinogenesis. It is frequently found inactivated in human cancers, mainly by point mutation. These point mutations are found in a wide variety of human cancers and a majority of them affect the DNA binding domain of the protein. The point mutations either alter native p53 conformation or abolish DNA contact. Additionally, cancer cells with p53 mutations are more resistant to chemo-radiation therapies.
# This counter screen was run against the hits identified from the primary screen. It uses a cell line that was not transfected with p53. Compounds that show activity in this counter screen show unspecific activation of the assay system and are excluded from further consideration.
# NIH Chemical Genomics Center [NCGC]
# NIH Molecular Libraries Probe Production Centers Network [MLPCN]
# Assay Provider (PI): Yi Sung, University of Michigan at Ann Arbor
# 5ul of 1000 cells per well are dispensed in all wells except column 4, into white solid-bottom TC-treated Kalypsys plates. The cells are kept in Opti-MEM and supplemented with 10% FBS and dispensed using a Multidrop (Thermo). Then using the Kalypsys pin-tool, 23nl of compounds are pinned. The compounds are starting concentration at 10mM, with 1:5 dilution, 4 points, and the control compound nocodazole is pinned in column 1 at 25mM, 1:3 dilution, in duplicate, 25mM nocodazole is pinned in column 2. Please note, all concentrations are working concentrations. 5ul of 1pM purified luciferase enzyme is dispensed using the Kalypsys dispenser in column 4. Plates are incubated for 24 hrs at 37 deg C, 5% CO2, and 95% humidity. Then 4ul of the detection reagent Amplite (ABD Bioquest) is added using the Kalypsys dispenser. Plates are incubated for 10 min at ambient room temperature and are then read on the ViewLux (Perkin Elmer) using a clear filter for a luminescent read-out.
# Potency is read from the fitted curve at half-maximal effect.
SMILES,Potency,"activity change, positive = activation"
Cc1nn2cc(-c3ccc(-c4ccccc4)cc3)nc2s1,active: 731 nM,–
Cc1ccc2nc(SCn3nnc4ccccc4c3=O)[nH]c2c1,"inconclusive: 8200 nM [activator, single point]",–
CC(=O)c1ccc(Nc2ncnc3c2oc2ccccc23)cc1,"inconclusive: 4110 nM [activator, partial curve, poor fit]",–
N/C(=N\OC(=O)c1cc(Cl)ccc1Cl)c1ccccn1,"inconclusive: 206 nM [activator, full curve, poor fit]",–
O=C(NNc1c2ccccc2nc2ccccc12)c1ccc(O)cc1,–,inactive: 9.35%
Cc1ccsc1C(=O)Nc1ccc2c(c1)OCCO2,"inconclusive: 231 nM [activator, partial curve, poor fit]",–
Cc1ccc2c(c1)c(C)c(C)n2CC(O)Cn1nnc2ccccc21 (stereo not given),"inconclusive: 10300 nM [activator, partial curve, poor fit]",–
O=C(Nc1ccccc1Oc1ccccc1)c1cc([N+](=O)[O-])ccc1Cl,"inconclusive: 29100 nM [activator, partial curve, poor fit]",–
CC(=O)Nc1cccc(-c2csc(Nc3ccc(C)cn3)n2)c1,"inconclusive: 2910 nM [activator, full curve, poor fit]",–
Cc1cs/c(=N/C(=S)Nc2ccccc2)n1C,active: 1300 nM,–
Cc1cccnc1NC(=O)/C=C/c1ccc2c(c1)OCO2,–,inactive: 66.3%
CC(=O)Nc1sc(N/N=C\c2ccccc2F)nc1-c1cccs1,"inconclusive: 3660 nM [activator, partial curve, poor fit]",–
CN(C)c1ccc(C(=O)Nc2nc3c(s2)CCCC3)cc1,"inconclusive: 146 nM [activator, full curve, poor fit]",–
O=C(CSc1nnc(-c2ccc(O)cc2)o1)Nc1ccc2c(c1)OCCO2,–,inactive: 67.2%
Cc1ccc(C)c(N2CCN(c3cnn(-c4nc5ccccc5s4)c(=O)c3Cl)CC2)c1,"inconclusive: 1640 nM [activator, single point]",–
Cc1c(C(=O)N2CCc3ccccc32)oc2c1C(=O)CC(C)(C)C2,–,inactive: 22.4%
Cc1cc(Br)c(S(=O)(=O)NCCN2CCOCC2)cc1C,–,inactive: -38.1%
Cc1nc2cc(-c3ccccc3)nn2c(N)c1-c1ccccc1,"inconclusive: 2590 nM [activator, partial curve, poor fit]",–
N#Cc1ccccc1NC(=O)c1cccc(COc2ccc(Cl)cc2Cl)c1,active: 116 nM,–
N#CC1(c2ccc(NC(=O)c3ccccc3F)cc2)CCCC1,"inconclusive: 1840 nM [activator, partial curve, poor fit]",–

SMILES,Potency,"activity change, positive = activation"
Cc1ccc(OCCCNCCO)c(Br)c1,–,inactive: 61%
COc1ccccc1-c1nc(-c2ccc(Br)o2)no1,active: 820 nM,–
CCOC(=O)c1[nH]c(C)c(C(=O)NCCC2=CCCCC2)c1C,–,inactive: -12%
Cc1ccc(-c2nc(-c3ccccc3)no2)c(Cl)c1,"inconclusive: 73.1 nM [activator, full curve, poor fit]",–
COc1ccc(CCNC(=O)/C=C/c2ccc(S(=O)(=O)N3CCOCC3)cc2)cc1,"inconclusive: 2060 nM [activator, partial curve, poor fit]",–
Clc1ccc(-c2cn3c(n2)-c2ccccc2C3)cc1Cl,"inconclusive: 3660 nM [activator, partial curve, poor fit]",–
CC(C)c1ccc(NC(=O)c2snc3ccc(Cl)cc23)cc1,active: 1030 nM,–
CC(/C=N/Nc1nc2ccccc2[nH]1)=C\c1ccccc1,active: 116 nM,–
O=C(c1ccco1)n1c(=S)nc2ccccn21,–,inactive: 85.9%
CCOc1ccc2c(c1)c(N=Nc1cccc(C(=O)O)c1)c(O)n2C,"inconclusive: 6510 nM [activator, single point]",–
Cc1cc(C(=O)COC(=O)c2ccc(O)cc2)c(C)n1CC(F)(F)F,active: 20600 nM,–
COc1ccccc1/C=C/C(=O)Nc1ccc2c(c1)CCC2,active: 2910 nM,–
Cc1c(C(=O)NC2=NCCS2)oc2ccccc12,"inconclusive: 2310 nM [activator, partial curve, poor fit]",–
COc1ccc(-c2cc(=O)c3ccccc3s2)cc1,"inconclusive: 3660 nM [activator, single point]",–
COc1cccc(C(=O)Nc2ccc(NC(=O)C(C)(C)C)cn2)c1,active: 461 nM,–
CCN1CCc2c(sc(NC(=O)c3ccc(S(=O)(=O)N4CCCC4)cc3)c2C(=O)NC)C1,"inconclusive: 5170 nM [activator, single point]",–
c1ccc(-c2cc3cc4c(cc3cn2)OCO4)cc1,–,inactive: 67.8%
O=C(CSc1nnc(-c2csc3c2CCCC3)o1)Nc1ccccc1,"inconclusive: 411 nM [activator, full curve, poor fit]",–
Cc1cccc(N/C=C/C(=O)c2cccs2)c1C,"inconclusive: 7310 nM [activator, partial curve, poor fit]",–
Cc1ccc(NC(=S)NC(=O)C2CCCC2)c(Br)c1,"inconclusive: 651 nM [activator, full curve, poor fit]",–
